# The other results are listed elsewhere or left out.
# B1: 4F2hc (Homo sapiens), P08195 (protein)
# chain: WWHTGALYRIGDLQAFQGHGAGNLAGLKGRLDYLSSLKVKGLVLGPIHKNQKDDVAQTDLLQIDPNFGSKEDFDSLLQSAKKKSIRVILDLTPNYRGENSWFSTQVDTVATKVKDALEFWLQAGVDGFQVRDIENLKDASSFLAEWQNITKGFSEDRLLIAGTNSSDLQQILSLLESNKDLLLTSSYLSDSGSTGEHTKSLVTQYLNATGNRWCSWSLSQARLLTSFLPAQLLRLYQLMLFTLPGTPVFSYGDEIGLDAAALPGQPMEAPVMLWDESSFPDIPGAVSANMTVKGQSEDPGSLLSLFRRLSDQRSKERSLLHGDFHAFSAGPGLFSYIRHWDQNERFLVVLNFGDVGLSAGLQASDLPASASLPAKADLLLSTQPGREEGSPLELERLKLEPHEGLLLRFPYAA
# Columns and labels:
# Assay in all cases: glycan array binding signal (z-score within array); higher = stronger binding
# Settings in all cases: glycan notation: IUPAC condensed, linker removed
# [1] = biological target: GlcNAc(a1-3)Gal(b1-4)GlcNAc
# Summary of the method: (§1)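 The Consortium for Functional Glycomics database supplied 3228 glycan arrays, of which those lacking an available protein sequence were dropped. The binding signal, a within-array Z-score, was averaged across arrays of the same protein sequence and across linkers. Negative scores can be read as non-binding.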
# [2] = biological target: GlcNAc(a1-4)Gal(b1-3)GlcNAc
# Summary of the method: as §1
# [3] = biological target: GlcNAc(a1-4)Gal(b1-4)GalNAc
# Summary of the method: as §1
# [4] = biological target: GlcNAc(a1-4)Gal(b1-4)GlcNAc
# Summary of the method: as §1
# [5] = biological target: GlcNAc(a1-4)Gal(b1-4)GlcNAc(b1-3)Gal(b1-4)Glc
# Summary of the method: as §1
# [6] = biological target: GlcNAc(a1-4)Gal(b1-4)GlcNAc(b1-3)Gal(b1-4)GlcNAc
# Summary of the method: as §1
# [7] = biological target: GlcNAc(a1-4)Gal(b1-4)GlcNAc(b1-3)Gal(b1-4)GlcNAc(b1-3)Gal(b1-4)GlcNAc
# Summary of the method: as §1
# [8] = biological target: GlcNAc(a1-4)Gal(b1-4)GlcNAc(b1-3)Gal(b1-4)[Fuc(a1-3)]GlcNAc(b1-3)Gal(b1-4)[Fuc(a1-3)]GlcNAc
# Summary of the method: as §1
# [9] = biological target: GlcNAc(a1-6)Gal(b1-4)GlcNAc
# Summary of the method: as §1
# [10] = biological target: GlcNAc(b1-2)Gal(b1-3)GalNAc
# Summary of the method: as §1
# [11] = biological target: GlcNAc(b1-2)Man(a1-3)[GlcNAc(b1-2)Man(a1-6)]Man(b1-4)GlcNAc(b1-4)GlcNAc
# Summary of the method: as §1
# [12] = biological target: GlcNAc(b1-2)Man(a1-3)[GlcNAc(b1-2)Man(a1-6)]Man(b1-4)GlcNAc(b1-4)[Fuc(a1-6)]GlcNAc
# Summary of the method: as §1
# GlcNAc(b1-3)Gal = biological target: GlcNAc(b1-3)Gal
# Summary of the method: as §1
# [13] = biological target: GlcNAc(b1-3)Gal(b1-3)GalNAc
# Summary of the method: as §1
# GlcNAc(b1-3)Gal(b1-4)Glc = biological target: GlcNAc(b1-3)Gal(b1-4)Glc
# Summary of the method: as §1
# [14] = biological target: GlcNAc(b1-3)Gal(b1-4)GlcNAc
# Summary of the method: as §1
# [15] = biological target: GlcNAc(b1-3)Gal(b1-4)GlcNAc(b1-3)Gal(b1-4)GlcNAc
# Summary of the method: as §1
# GlcNAc(b1-3)GalNAc = biological target: GlcNAc(b1-3)GalNAc
# Summary of the method: as §1
# GlcNAc(b1-3)Man = biological target: GlcNAc(b1-3)Man
# Summary of the method: as §1
# [16] = biological target: GlcNAc(b1-3)[GlcNAc(b1-4)][GlcNAc(b1-6)]GlcNAc
# Summary of the method: as §1
# [17] = biological target: GlcNAc(b1-3)[GlcNAc(b1-6)]Gal(b1-4)GlcNAc
# Summary of the method: as §1
# [18] = biological target: GlcNAc(b1-3)[GlcNAc(b1-6)]GalNAc
# Summary of the method: as §1
# [19] = biological target: GlcNAc(b1-4)Gal(b1-4)GlcNAc
# Summary of the method: as §1
# GlcNAc(b1-4)GlcNAc = biological target: GlcNAc(b1-4)GlcNAc
# Summary of the method: as §1
# [20] = biological target: GlcNAc(b1-4)GlcNAc(b1-4)GlcNAc
# Summary of the method: as §1
# [21] = biological target: GlcNAc(b1-4)GlcNAc(b1-4)GlcNAc(b1-4)GlcNAc(b1-4)GlcNAc
# Summary of the method: as §1
# [22] = biological target: GlcNAc(b1-4)GlcNAc(b1-4)GlcNAc(b1-4)GlcNAc(b1-4)GlcNAc(b1-4)GlcNAc
# Summary of the method: as §1
# [23] = biological target: GlcNAc(b1-4)[GlcNAc(b1-6)]GalNAc
# Summary of the method: as §1
# [24] = biological target: GlcNAc(b1-6)Gal(b1-4)GlcNAc
# Summary of the method: as §1
# GlcNAc(b1-6)GalNAc = biological target: GlcNAc(b1-6)GalNAc
# Summary of the method: as §1
# GlcNAc3Prop(b1-4)GlcNAc = biological target: GlcNAc3Prop(b1-4)GlcNAc
# Summary of the method: as §1
# [25] = biological target: GlcNAc6S(b1-3)Gal(b1-4)GlcNAc
# Summary of the method: as §1
# Kdn(a2-3)Gal(b1-3)GalNAc = biological target: Kdn(a2-3)Gal(b1-3)GalNAc
# Summary of the method: as §1
# Kdn(a2-3)Gal(b1-3)GlcNAc = biological target: Kdn(a2-3)Gal(b1-3)GlcNAc
# Summary of the method: as §1
# Kdn(a2-3)Gal(b1-4)Glc = biological target: Kdn(a2-3)Gal(b1-4)Glc
# Summary of the method: as §1
# Kdn(a2-3)Gal(b1-4)GlcNAc = biological target: Kdn(a2-3)Gal(b1-4)GlcNAc
# Summary of the method: as §1
# [26] = biological target: Kdn(a2-3)Gal(b1-4)[Fuc(a1-3)]GlcNAc
# Summary of the method: as §1
# Kdn(a2-6)Gal(b1-4)GlcNAc = biological target: Kdn(a2-6)Gal(b1-4)GlcNAc
# Summary of the method: as §1
binder,measurement,setting,value
B1,glycan array binding signal (z-score),[1],1.33
same,glycan array binding signal (z-score),[2],1.05
same,glycan array binding signal (z-score),[3],-1.21
same,glycan array binding signal (z-score),[4],-0.128
same,glycan array binding signal (z-score),[5],0.211
same,glycan array binding signal (z-score),[6],0.598
same,glycan array binding signal (z-score),[7],0.524
same,glycan array binding signal (z-score),[8],-0.386
same,glycan array binding signal (z-score),[9],0.708
same,glycan array binding signal (z-score),[10],-0.52
same,glycan array binding signal (z-score),[11],-0.182
same,glycan array binding signal (z-score),[12],0.356
same,glycan array binding signal (z-score),GlcNAc(b1-3)Gal,-0.42
same,glycan array binding signal (z-score),[13],2.03
same,glycan array binding signal (z-score),GlcNAc(b1-3)Gal(b1-4)Glc,0.852
same,glycan array binding signal (z-score),[14],-1.04
same,glycan array binding signal (z-score),[15],-0.297
same,glycan array binding signal (z-score),GlcNAc(b1-3)GalNAc,-1.12
same,glycan array binding signal (z-score),GlcNAc(b1-3)Man,0.475
same,glycan array binding signal (z-score),[16],0.331
same,glycan array binding signal (z-score),[17],-0.39
same,glycan array binding signal (z-score),[18],0.138
same,glycan array binding signal (z-score),[19],-0.853
same,glycan array binding signal (z-score),GlcNAc(b1-4)GlcNAc,0.587
same,glycan array binding signal (z-score),[20],-0.291
same,glycan array binding signal (z-score),[21],-0.596
same,glycan array binding signal (z-score),[22],-0.813
same,glycan array binding signal (z-score),[23],0.848
same,glycan array binding signal (z-score),[24],0.103
same,glycan array binding signal (z-score),GlcNAc(b1-6)GalNAc,-0.053
same,glycan array binding signal (z-score),GlcNAc3Prop(b1-4)GlcNAc,0.691
same,glycan array binding signal (z-score),[25],-1.04
same,glycan array binding signal (z-score),Kdn(a2-3)Gal(b1-3)GalNAc,0.936
same,glycan array binding signal (z-score),Kdn(a2-3)Gal(b1-3)GlcNAc,0.425
same,glycan array binding signal (z-score),Kdn(a2-3)Gal(b1-4)Glc,0.269
same,glycan array binding signal (z-score),Kdn(a2-3)Gal(b1-4)GlcNAc,-0.517
same,glycan array binding signal (z-score),[26],0.966
same,glycan array binding signal (z-score),Kdn(a2-6)Gal(b1-4)GlcNAc,0.863

# Retrieved one by one from the list above:
binder,measurement,setting,value
B1,glycan array binding signal (z-score),[17],-0.39
same,glycan array binding signal (z-score),[10],-0.52
